Amino acid sequences for entries named in this document (tags omitted).
UniProt P35462, whole entry: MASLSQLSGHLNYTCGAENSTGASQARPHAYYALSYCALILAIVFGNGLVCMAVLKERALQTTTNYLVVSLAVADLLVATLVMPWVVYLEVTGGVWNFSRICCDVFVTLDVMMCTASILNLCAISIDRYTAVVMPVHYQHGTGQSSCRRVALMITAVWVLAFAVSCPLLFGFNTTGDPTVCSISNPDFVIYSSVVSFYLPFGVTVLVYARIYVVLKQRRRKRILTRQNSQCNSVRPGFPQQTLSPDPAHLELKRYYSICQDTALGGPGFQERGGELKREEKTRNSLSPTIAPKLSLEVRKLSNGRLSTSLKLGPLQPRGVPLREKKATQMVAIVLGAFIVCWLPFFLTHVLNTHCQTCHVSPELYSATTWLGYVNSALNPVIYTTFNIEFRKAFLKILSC

In ChEMBL document CHEMBL1148822, “Principal component analysis differentiates the receptor binding profiles of three antipsychotic drug candidates from current antipsychotic drugs” (J Med Chem, 2007):

Molecular target: D(3) dopamine receptor (Homo sapiens, UniProt P35462)
Assay: biochemical

`OCCOCCN1CCN(C2=Nc3ccccc3Sc3ccccc32)CC1` [QUETIAPINE] showed a Ki of 251 nM.
